Results published in patent publication US20100227313A1, “Methods and Compositions for Determining Altered Susceptibility of HIV-1 to Protease Inhibitor Treatment” (priority 2007, published 2010).
At least one compound was matched to its structure with a doubt left.

Test system: HIV-1
Assay: Resistance test vector (PHENOSENSE) phenotypic susceptibility assay, fold change in IC50, correlated with genotype (Fisher's Exact test, odds ratio)
Assay type: cell-based, human immunodeficiency virus type 1
Conditions: 2862 clinical samples; FC relative to wild-type (NL4-3); FIG. 1
Source text: See Petropoulos et al., 2000, Antimicrob. Agents Chemother. 44:920-928; U.S. Pat. Nos. 5,837,464 and 6,242,187. PHENOSENSE™ is a phenotypic assay that achieves the benefits of phenotypic testing and overcomes the drawbacks of previous assays.
PHENOSENSE™ can obtain results with only one round of viral replication, thereby avoiding selection of subpopulations of virus that can occur during preparation of viral stocks required for assays that rely on fully infectious virus.
A resistance test vector (“RTV”) can then be constructed by incorporating the amplified viral gene sequences into a replication defective viral vector by using any method known in the art of incorporating gene sequences into a vector. In one embodiment, restrictions enzymes and conventional cloning methods are used. […]
The assay can be performed by first co-transfecting host cells with RTV DNA and a plasmid that expresses the envelope proteins of another retrovirus, for example, amphotropic murine leukemia virus (MLV). […] The completion of a single round of viral replication in the fresh target cells can be detected by the means for detecting replication contained in the vector. […] The susceptibility of an HIV, or population of HIV, can be determined by measuring the concentration of antiviral drug at which the luciferase activity detected is half-maximal. […]

## CCC[C@@]1(CCc2ccccc2)CC(O)=C([C@H](CC)c2cccc(NS(=O)(=O)c3ccc(C(F)(F)F)cn3)c2)C(=O)O1 [TPV, tipranavir]
  correlation of FC in susceptibility with the FC in susceptibility for DRV: no correlation
